Test results: patent publication US20170275376A1
These are yes or no findings as the source states them, for the method shown. Some binding calls cover weakened binding; strength is not graded here. Blank lines part the entries; values can stand above or below the binder they belong to.

Assays:
anti-FIXa-arm of ACE910 = test: ELISA, hybridoma culture supernatant
anti-FX-arm of ACE910 = test: ELISA, hybridoma culture supernatant

binding (anti-FIXa-arm of ACE910): binds
B1: mouse antibody AQ8 (antibody, V domains shown)
VH: EVNLVESGGGLVQPGGSMSLSCAASGFTFTDYYMSWVRQPPGKALEWLALIRNKANGYTTEYSASVKGRFTISRDNSQSILYLQMNALRAEDSATYYCARDSYYSYDGYAMDYWGQGTSVTVSS
VL: DIQMTQSPASLAASVGETITITCQASENIYFSLAWYQQKQGKSPQLLIYNTDSLKDGVPSRFSGSGSGTQYSMKINSMQPEDTATYFCRQSYDFPWTFGGGTKLEIK

binding (anti-FX-arm of ACE910): binds
B2: rat antibody AJ540 (antibody, V domains shown)
VH: QIQLVQSGPELKKPGESVKISCKASGYTFTDYAMHWVKQVPGKGLKWMGWINTYTGKPTYADDFKGRFVFSLEASASTANLQISNLKNEDTANVFCAREGGGYYWYFDFWGPGTMVTVSS
VL: DIVMTQSPTSMSISVGDRVTMNCKANQNVDFNVDWYQQKTGQSPKLLIYKASNRYTGVPDRFTGSGSGTDFTFTISNMQAEDLAVYYCMQSNSFPLTFGSGTNLEIK
